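Genome-wide siRNA knockdown in TC32 Ewing sarcoma cells, comparing luciferase light from an NR0B1-promoter reporter with a CMV-promoter reporter 48 hours after transfection.
Each siRNA was applied at 20 nM.
A z-score of the log NR0B1-over-CMV signal, less the median of siRNAs with the same seed; more negative means a stronger specific loss of the NR0B1 reporter.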

This is part of the screen; most of the strongest results are not listed here.
Sequences are the guide (antisense) strand, without overhang.

{"sequence": "UUGAUAGAAACAUCUAUCC", "gene": "SUZ12", "seed-corrected z-score": "0.6636"}
{"sequence": "AUAGUGUAGACCACUGGUG", "gene": "LRGUK", "seed-corrected z-score": "0.2329"}
{"sequence": "UGGAGUUUCAAAUGAUUGC", "gene": "CASP4", "seed-corrected z-score": "0.242"}
{"sequence": "AGGGAUAUAAUGAUGUUGC", "gene": "OSGIN2", "seed-corrected z-score": "0.3389"}
{"sequence": "UCUGUACUGCAGUACAUCC", "gene": "EPHA3", "seed-corrected z-score": "-0.506"}
{"sequence": "AAAGGUGUAGCAGUACCCG", "gene": "SLC22A8", "seed-corrected z-score": "0.04283"}
{"sequence": "UACCAUUCGUUCUUCAUCC", "gene": "ENDOD1", "seed-corrected z-score": "1.345"}
{"sequence": "AAAACAGUCAUGGUCAGCC", "gene": "PTGER3", "seed-corrected z-score": "-0.2339"}
{"sequence": "CUAAUUGUUGUUCUUAAUU", "gene": "LOC728877", "seed-corrected z-score": "1.179"}
{"sequence": "UCUUUCCAUAGAGUGAAUG", "gene": "OR4C46", "seed-corrected z-score": "-0.1522"}
{"sequence": "AUAGAGAAAGGCGAUGUCC", "gene": "GJB5", "seed-corrected z-score": "-0.9248"}
{"sequence": "UUCCGUACGUGUUGUAUUC", "gene": "ZNF555", "seed-corrected z-score": "0.08322"}
{"sequence": "UCACGGUACAGAUCUUGCC", "gene": "HPN", "seed-corrected z-score": "-1.17"}
{"sequence": "UUUCAUCCAUCCUUUUAUC", "gene": "PRPF6", "seed-corrected z-score": "0.5569"}
{"sequence": "UGUGAUGAAACACCGUUGC", "gene": "LYST", "seed-corrected z-score": "1.878"}
{"sequence": "UAGGAUAAUAGGACAGGUC", "gene": "EMD", "seed-corrected z-score": "1.098"}
{"sequence": "UUUCAGAAGAGUAGAGGCC", "gene": "PDLIM1", "seed-corrected z-score": "0.4403"}
{"sequence": "UGGUGAAUCACAGUUGUAU", "gene": "LETMD1", "seed-corrected z-score": "0.1313"}
{"sequence": "UCUGAUUCAACCUGAGUGC", "gene": "CCDC34", "seed-corrected z-score": "-0.2271"}
{"sequence": "UUCAUAUUCAACCCGAUAC", "gene": "IFT20", "seed-corrected z-score": "0.441"}
{"sequence": "AAAGUUUCAAGUCGUCAUC", "gene": "TADA1", "seed-corrected z-score": "-0.05672"}
{"sequence": "UAGCAGAGGAGAUAACUUG", "gene": "FXYD5", "seed-corrected z-score": "-0.423"}
{"sequence": "UUAGAGAUUGGGACUACAC", "gene": "WFDC3", "seed-corrected z-score": "0.5775"}
{"sequence": "UACGUUGAACUUUUCUUUU", "gene": "C10orf113", "seed-corrected z-score": "-0.04437"}
{"sequence": "UAAUAGGUCACAACAAUGG", "gene": "TMEM128", "seed-corrected z-score": "-0.3764"}
{"sequence": "UAUAGUUCCUUGUCAUUCC", "gene": "BCO2", "seed-corrected z-score": "-0.04659"}
{"sequence": "AAAGUUUCGAGCUCGCAGC", "gene": "SEC14L4", "seed-corrected z-score": "-0.5231"}
{"sequence": "UUUCUUCCGAUCGUUGACG", "gene": "TTLL9", "seed-corrected z-score": "-0.2808"}
{"sequence": "AACUGGACCACUGUGAUGA", "gene": "OR6K2", "seed-corrected z-score": "-1.575"}
{"sequence": "AGAAUCAUCAUAGCAGUUC", "gene": "RHAG", "seed-corrected z-score": "-0.1161"}
{"sequence": "AAUGGUGCAACAGUUACUU", "gene": "S100PBP", "seed-corrected z-score": "0.5141"}
{"sequence": "UUUGAUCUCAUGAUUUUGG", "gene": "FAM92B", "seed-corrected z-score": "0.0952"}
{"sequence": "UACCGUAACAGCUCGCUCU", "gene": "PCBP4", "seed-corrected z-score": "0.4679"}
{"sequence": "UUUAUUCGCAGUUUUCUUG", "gene": "STX2", "seed-corrected z-score": "-1.106"}
{"sequence": "UGAUCAACUAGACUGGAGG", "gene": "ZNF560", "seed-corrected z-score": "0.5521"}
{"sequence": "UUUGGUAAGUCGAUUCCGC", "gene": "RNF167", "seed-corrected z-score": "0.4658"}
{"sequence": "UAUGCUUCCUGGGUGUUGA", "gene": "TNK1", "seed-corrected z-score": "-1.252"}
{"sequence": "UGAGGUAGAAGAACCCAGC", "gene": "C1orf159", "seed-corrected z-score": "-1.052"}
{"sequence": "UUUAGAUCCAGGCACAACC", "gene": "TTK", "seed-corrected z-score": "-0.7126"}
{"sequence": "UUCUUUUUCAGCGAACCGU", "gene": "PITX3", "seed-corrected z-score": "-0.02225"}
{"sequence": "ACAUUGACUAAUCUGACUC", "gene": "FSD1L", "seed-corrected z-score": "-0.1476"}
{"sequence": "UAGUCUACUACAUUAUGGG", "gene": "XKRX", "seed-corrected z-score": "-1.027"}
{"sequence": "UACGUUGUCAAGGUAAUGC", "gene": "SLC47A2", "seed-corrected z-score": "-0.6103"}
{"sequence": "UCAUUAUCUACAAGAGUCC", "gene": "RSPRY1", "seed-corrected z-score": "-0.3338"}

From PubChem BioAssay record AID1159506 (NCATS, 2015).